{"source": "patent US9658235B2", "about": "“Pi-extended acedan derivatives, their application for two-photon microscopy imaging, and their application for two-photon microscopy imaging of amyloid-beta plaque in an alzheimer's disease animal model” (POSTECH ACADEMY-INDUSTRY FOUNDATION, priority 2015, dated 2017)", "test_system": "brain, liver, kidney, spleen and lung tissue of mice", "assay": "Two-photon microscope imaging of tissue slices of mice", "design": "species or system C57BL6 mice", "details": "10 μM"}
{"molecule": "CN(C)c1ccc2cc3c(cc2c1)OC1CCCC(=O)C1=C3", "note": "(centres unmarked) [compound 4a, 8-(dimethylamino)-2,3,4a-tetrahydro-1H-benzo[b]xanthene-1-one]", "values": [{"measurement": "two-photon microscope image quality compared to acedan", "setting": "10 minutes, 16 μm slices, excitation 900 nm (acedan 780 nm), 10 mW", "value": "more clear image with a higher contrast"}, {"measurement": "effect from autofluorescence in the image", "setting": "excitation 900 nm, contrary to acedan at 780 nm", "value": "sufficiently suppressed"}]}
